Results are given in words; binding and its absence hold for the method and conditions named. A result given as binding can be weak or reduced; the word gives no strength. Where a sequence is shown, tags or fusion partners need not be part of it.

By UniProt entry, the sequences of proteins in these tests, tags left out. Where a name states a change or a piece, a line headed by the entry shows the natural chain unless it says otherwise.
UniProt Q9C5U0: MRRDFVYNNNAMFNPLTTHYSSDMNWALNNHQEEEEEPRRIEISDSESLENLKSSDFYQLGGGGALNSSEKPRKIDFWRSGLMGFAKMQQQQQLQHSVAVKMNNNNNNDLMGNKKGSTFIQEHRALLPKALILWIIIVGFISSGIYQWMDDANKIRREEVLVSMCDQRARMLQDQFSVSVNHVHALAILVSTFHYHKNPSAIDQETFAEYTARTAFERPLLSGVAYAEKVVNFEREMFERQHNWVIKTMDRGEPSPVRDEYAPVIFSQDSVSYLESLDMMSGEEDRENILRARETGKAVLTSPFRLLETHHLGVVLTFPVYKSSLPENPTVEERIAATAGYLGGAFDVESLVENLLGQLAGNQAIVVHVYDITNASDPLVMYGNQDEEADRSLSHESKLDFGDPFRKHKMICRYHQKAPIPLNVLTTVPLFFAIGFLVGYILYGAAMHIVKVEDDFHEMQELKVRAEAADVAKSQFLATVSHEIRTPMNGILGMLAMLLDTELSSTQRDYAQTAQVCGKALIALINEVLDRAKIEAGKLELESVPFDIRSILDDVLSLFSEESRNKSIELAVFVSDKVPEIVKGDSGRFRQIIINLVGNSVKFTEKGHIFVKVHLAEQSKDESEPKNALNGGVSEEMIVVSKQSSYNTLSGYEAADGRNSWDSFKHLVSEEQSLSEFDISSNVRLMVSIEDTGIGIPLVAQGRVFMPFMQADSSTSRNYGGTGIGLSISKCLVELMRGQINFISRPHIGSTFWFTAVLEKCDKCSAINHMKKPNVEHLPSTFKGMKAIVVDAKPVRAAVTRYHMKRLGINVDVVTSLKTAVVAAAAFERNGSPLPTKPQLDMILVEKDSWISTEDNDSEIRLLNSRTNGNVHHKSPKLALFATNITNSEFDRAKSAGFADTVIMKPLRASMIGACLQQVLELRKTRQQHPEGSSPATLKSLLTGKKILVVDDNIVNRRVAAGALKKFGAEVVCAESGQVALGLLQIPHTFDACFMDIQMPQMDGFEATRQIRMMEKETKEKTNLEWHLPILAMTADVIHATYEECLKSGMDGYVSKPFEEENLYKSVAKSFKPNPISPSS

The assay addresses AHK4 (A. thaliana) (UniProt Q9C5U0). Put plainly: two-hybrid; yeast three-hybrid: receiver domain as Gal4 BD fusion, AHP proteins as Gal4 AD fusions, scFv hB7A expressed ectopically from pY3HS or empty pY3HS; S. cerevisiae PJ69-4A; media lacking Leu, Trp, Ura and His or Ade, or with 1 mM 3-Amino-1,2,4-triazole.

B1: ARABIDOPSIS … PHOSPHOTRANSFER PROTEIN 3, Gal4 activation domain fusion (protein, UniProt Q9SAZ5 1-155)
chain: MDTLIAQLQRRFCDFTISLYHQGFLDDQFTELKKLQDECSPDFVAEVVTLFFEDCEKLISNMARALDQTGNVDFKLVGSSVHQLKGSSSSVGAKRVKGLCVTLKECCDSQNYEGCVRCLQQVDIEYKTLKAKLQDLFNLEQQIVQAGGRIPQVDI
In the case of B1, the binding result is given as “binds”.

For the origin of these results see paper PMC4192540, “Targeted In Vivo Inhibition of Specific Protein–Protein Interactions Using Recombinant Antibodies” (PLoS ONE, 2014).
